Measured values: PubChem BioAssay AID651744 (Broad Institute, 2012)
Hit rate of the full screen: of about 5,600 compounds, about 3,100 (55%) were called active. So high a share suggests a set chosen from earlier hits. The shares of active, inactive and inconclusive entries below differ from those in the screen.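 Rule for the calls: active = mean loss of cell viability signal at or above a set limit, and enough replicates individually reaching it; inconclusive = meets only the mean limit or only the replicate share; inactive = meets neither condition.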

Assay: NIH/3T3 fibroblast cytotoxicity, confirmation, cytotoxicity control, cell-based, cherry-pick, single point, set 2 (AID 651744);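 note: 0% = median of neutral control wells and 100% = median of positive control wells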
Settings: NIH/3T3 viability, CellTiter-Glo ATP luminescence, 90 h; at 24.9 µM; stronger effect = higher value

Row | SMILES | inhibition
1 | CN1c2ccc(-c3ccc(F)cc3)cc2[C@H]2[C@H](CCN2C(=O)Cc2cccnc2)[C@H]1CO | inactive: 9.84%
2 | C[C@H](CO)N1C[C@H](C)[C@@H](CN(C)C(=O)Cc2ccncc2)Oc2cc(C#CC3CCCC3)ccc2S1(=O)=O | inconclusive: 24.4%
3 | COc1cccc(S(=O)(=O)N2CCCCN3[C@H](C2)[C@@H](c2ccc(C#CC4CC4)cc2)[C@@H]3CO)c1 | inconclusive: 28.3%
4 | C[C@H]1CCCCO[C@H](CN(C)Cc2ccc3c(c2)OCO3)[C@@H](C)CN([C@@H](C)CO)C(=O)c2cc(NC(=O)Nc3ccc(C(F)(F)F)cc3)ccc2O1 | active: 103%
5 | O=S(=O)(c1ccccc1F)N1CCCCN2[C@H](CO)[C@H](c3ccc(-c4cccnc4)cc3)[C@H]2C1 | inconclusive: 33.6%
6 | COc1cccc(NC(=O)N(C)C[C@H]2Oc3cc(C#Cc4ccc(F)cc4)ccc3S(=O)(=O)N([C@@H](C)CO)C[C@H]2C)c1 | inactive: 25.9%
7 | COc1ccc(S(=O)(=O)N(C)C[C@H]2OCCCC[C@@H](C)Oc3ccc(NC(=O)Nc4ccccc4)cc3C(=O)N([C@@H](C)CO)C[C@@H]2C)cc1 | inconclusive: 23.4%
8 | COc1ccccc1-c1ccc([C@H]2[C@H](C#N)N(C(=O)C3CC3)[C@H]2CO)cc1 | inconclusive: 23.7%
9 | C[C@H]1CN([C@@H](C)CO)S(=O)(=O)c2ccc(C#CCN(C)C)cc2O[C@H]1CN(C)Cc1ccccn1 | inconclusive: 29.5%
10 | CC(=O)NC[C@H]1[C@H](c2ccc(-c3cccnc3)cc2)[C@H](CO)N1C(=O)C1CC1 | inactive: 0.089%
11 | C[C@H]1CCCCO[C@@H](CN(C)C(=O)Nc2ccc(C(F)(F)F)cc2)[C@@H](C)CN([C@@H](C)CO)C(=O)c2cc(NC(=O)c3ccncc3)ccc2O1 | inconclusive: 20.4%
12 | C[C@H](CO)N1C[C@H](C)[C@H](CN(C)Cc2ccc(C(F)(F)F)cc2)Oc2ccc(NC(=O)Cc3cn(C)c4ccccc34)cc2CC1=O | inconclusive: 39.6%
13 | C[C@@H]1CN([C@H](C)CO)S(=O)(=O)c2ccc(C#Cc3ccccc3)cc2O[C@H]1CN(C)S(=O)(=O)c1ccccc1F | inconclusive: 26.3%
14 | O=C(C[C@H]1CC[C@H]2[C@@H](COC[C@@H](O)CN2Cc2cc(F)ccc2F)O1)N[C@@H]1CCN(Cc2ccccc2)C1 | inactive: -8.53%
15 | O=C(C1CC1)N1CCCCN2[C@H](CO)[C@H](c3ccc(-c4cccc(F)c4)cc3)[C@@H]2C1 | inconclusive: 23.4%
16 | C[C@@H]1CN([C@@H](C)CO)C(=O)c2cc(NC(=O)Nc3ccc(C(F)(F)F)cc3)ccc2O[C@@H](C)CCCCO[C@H]1CN(C)C(=O)c1ccccc1 | inconclusive: 22.1%
17 | Cc1ccc(S(=O)(=O)N(C)C[C@H]2OCCCC[C@H](C)Oc3ccc(NS(=O)(=O)c4ccc(Cl)cc4)cc3C(=O)N([C@H](C)CO)C[C@H]2C)cc1 | inconclusive: 29.3%
18 | COc1ccccc1C#Cc1ccc([C@@H]2[C@H](C#N)N(C(=O)C3CCC3)[C@H]2CO)cc1 | active: 28.2%

Laid out differently: entries from further up
Row	SMILES	inhibition
3	COc1cccc(S(=O)(=O)N2CCCCN3[C@H](C2)[C@@H](c2ccc(C#CC4CC4)cc2)[C@@H]3CO)c1	inconclusive: 28.3%
4	C[C@H]1CCCCO[C@H](CN(C)Cc2ccc3c(c2)OCO3)[C@@H](C)CN([C@@H](C)CO)C(=O)c2cc(NC(=O)Nc3ccc(C(F)(F)F)cc3)ccc2O1	active: 103%
5	O=S(=O)(c1ccccc1F)N1CCCCN2[C@H](CO)[C@H](c3ccc(-c4cccnc4)cc3)[C@H]2C1	inconclusive: 33.6%
6	COc1cccc(NC(=O)N(C)C[C@H]2Oc3cc(C#Cc4ccc(F)cc4)ccc3S(=O)(=O)N([C@@H](C)CO)C[C@H]2C)c1	inactive: 25.9%
7	COc1ccc(S(=O)(=O)N(C)C[C@H]2OCCCC[C@@H](C)Oc3ccc(NC(=O)Nc4ccccc4)cc3C(=O)N([C@@H](C)CO)C[C@@H]2C)cc1	inconclusive: 23.4%
8	COc1ccccc1-c1ccc([C@H]2[C@H](C#N)N(C(=O)C3CC3)[C@H]2CO)cc1	inconclusive: 23.7%

Going on with the list.

Row | SMILES | inhibition
19 | O=C(C1CCC1)N1CCCCN2[C@@H](CO)[C@@H](c3ccc(C#CC4(O)CCCC4)cc3)[C@@H]2C1 | inactive: 0.152%
20 | COCC#Cc1ccc2c(c1)O[C@@H](CN(C)CC1CCCC1)[C@H](C)CN([C@H](C)CO)S2(=O)=O | active: 104%
21 | Cc1ccccc1S(=O)(=O)N1CCCCN2[C@@H](CO)[C@H](c3ccc(-c4cncnc4)cc3)[C@@H]2C1 | inconclusive: 16.9%
22 | C[C@H]1CN([C@@H](C)CO)S(=O)(=O)c2ccc(Br)cc2O[C@H]1CN(C)S(=O)(=O)c1ccc(F)cc1 | inconclusive: 20.2%
23 | C[C@@H]1CCCCO[C@H](CN(C)Cc2ccc(C(F)(F)F)cc2)[C@@H](C)CN([C@H](C)CO)C(=O)c2cc(NC(=O)Nc3ccccc3)ccc2O1 | inactive: 19.9%
24 | N#Cc1cccc(-c2ccc([C@H]3[C@@H](CO)N4CCCCN(C(=O)Nc5ccccc5)C[C@@H]34)cc2)c1 | inactive: 16.4%
25 | C[C@@H]1CCCCO[C@H](CN(C)C(=O)Nc2cccc3ccccc23)[C@H](C)CN([C@@H](C)CO)C(=O)c2cc(NC(=O)Nc3ccc(F)cc3)ccc2O1 | inactive: -10.8%
26 | CN(C)c1ccc2c(c1)[C@H]1C[C@H](CC(=O)NCc3ccc(Oc4ccccc4)cc3)O[C@@H](CO)[C@H]1O2 | inconclusive: 23.7%
27 | N#C[C@H]1[C@H](c2ccc(C#Cc3ccc(F)cc3)cc2)[C@H](CO)N1C(=O)Cc1ccncc1 | inconclusive: 18.3%
28 | Cc1ccc(S(=O)(=O)Nc2ccc3c(c2)C(=O)N([C@@H](C)CO)C[C@@H](C)[C@@H](CN(C)S(=O)(=O)c2ccccc2)OCCCC[C@H](C)O3)cc1 | inactive: 16.6%
29 | N#C[C@@H]1[C@@H](c2ccc(C#CC3(O)CCCC3)cc2)[C@@H](CO)N1C(=O)C1CCCCC1 | inconclusive: 28.4%
30 | C[C@@H]1CN([C@@H](C)CO)C(=O)c2cc(C#Cc3ccccc3F)cnc2O[C@H]1CN(C)C(=O)Cc1ccccc1 | inconclusive: 27.2%
31 | COc1cccc(NC(=O)N(C)C[C@H]2Oc3cc(-c4ccccc4F)ccc3S(=O)(=O)N([C@H](C)CO)C[C@@H]2C)c1 | inconclusive: 23.6%
32 | C[C@@H]1CCCCO[C@H](CN(C)C(=O)Nc2ccc(C(F)(F)F)cc2)[C@H](C)CN([C@@H](C)CO)C(=O)c2cc(NC(=O)NC3CCCCC3)ccc2O1 | inconclusive: 22.4%
33 | CC(=O)N(C)C[C@H]1Oc2cc(C#CC3CCCCC3)ccc2S(=O)(=O)N([C@H](C)CO)C[C@@H]1C | inconclusive: 57.4%
34 | O=C(C[C@@H]1C[C@H]2c3cc(NC(=O)Nc4ccccc4)ccc3O[C@H]2[C@H](CO)O1)NCc1cccc(F)c1 | inactive: 13.7%
35 | O=C(Nc1ccccc1F)N1CCCCN2[C@H](CO)[C@H](c3ccc(C#Cc4cccnc4)cc3)[C@@H]2C1 | inconclusive: 69.2%
36 | C[C@@H]1CN([C@H](C)CO)S(=O)(=O)c2ccc(-c3cccc(F)c3)cc2O[C@@H]1CN(C)S(=O)(=O)c1ccc(F)cc1 | active: 46.7%
